# Reference: PubChem BioAssay AID504834 (National Center for Advancing Translational Sciences (NCATS), 2011)
# The whole screen tested about 320,000 compounds, of which about 22,000 (6.9%) were called active. Inconclusive results, whose numbers are uncertain, are shown with a selection of clear calls. The call rests on the fitted dose curve; in most records, active means well fitted inhibition curve with a large enough effect; inconclusive means small, poorly fitted or top-dose-only effect, or another doubt; inactive means no such curve, though single readings can be large or run the other way. Potencies of inconclusive entries are doubtful fits and often do not repeat.
# Assay: Primary qHTS for delayed death inhibitors of the malarial parasite plastid, 96 hour incubation
# Settings: P. falciparum luciferase reporter growth; series mostly up to 28.7 µM
# In short: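 P. falciparum expressing integrated firefly luciferase grown in erythrocytes (2% hematocrit, 0.05% parasitemia final) with compounds for 96 hours at 37 C, 5% CO2. Growth inhibition read as loss of luminescence after adding luciferase detection reagent.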
# Potency means the concentration at half of the fitted maximal effect.
row,SMILES,Potency
1,CCN(CC)CCCN(C(=O)c1ccco1)c1nc(-c2ccc(C)cc2)cs1,inactive
2,Cc1cc(C)n(-c2cc(N3CCN(S(=O)(=O)c4ccc(Br)cc4)CC3)ccc2[N+](=O)[O-])n1,"inconclusive: 5.86 µM [inhibitor, partial curve, poor fit]"
3,O=C(c1ccco1)N1CCN(Cc2cc(=O)oc3cc(O)ccc23)CC1,"inconclusive: 9.28 µM [inhibitor, single point]"
4,CC(C)c1cc(C(=O)Nc2sc3c(c2C#N)CCC3)no1,"inconclusive: 18.5 µM [inhibitor, single point]"
5,C/C(=N\OC(=O)c1cccc(Cl)c1)c1sc(C)nc1C,inactive
6,Cc1cc2nc3n(c2cc1C)CCCN3,inactive
7,CN(C)CCCn1cnc2c1c(=O)[nH]c(=O)n2Cc1ccccc1,inactive
8,Cc1ccc(N/C=C/C(=O)C(C)(C)C)c(O)c1,"inconclusive: 18.5 µM [inhibitor, single point]"
9,COc1ccc(C(=O)NCCSCc2ccccc2C)cc1,"inconclusive: 9.28 µM [inhibitor, partial curve]"
10,CC(=O)N1CCC(=O)N(C(C)C)c2ccccc21,"inconclusive: 0.233 µM [inhibitor, full curve, poor fit]"
11,O=C(CN(c1cccc(C(F)(F)F)c1)S(=O)(=O)c1ccc(Cl)c([N+](=O)[O-])c1)NCc1ccccc1Cl,"inconclusive: 10.4 µM [inhibitor, single point]"
12,CC(=O)Nc1ccc(N(C(=O)c2ccccn2)C(C(=O)NC2CCCCC2)c2ccc(F)cc2)cc1 (configuration not stated),inactive
13,Cc1cccc(NS(=O)(=O)c2cc(C(=O)N3CCN(C)CC3)ccc2C)c1,active: 9.28 µM
14,COc1ccccc1C(CC(=O)Nc1ccccc1C)c1ccc(OC(C)C)cc1 (configuration not stated),"inconclusive: 18.5 µM [inhibitor, single point]"
15,COc1cc(/C=N/OCC(=O)NC2CCS(=O)(=O)C2)ccc1OC(F)F (configuration not stated),"inconclusive: 0.37 µM [inhibitor, partial curve, poor fit]"
16,CC[C@@H]1CC=C[C@H]2[C@H]1C(=O)N(Cc1ccccc1)[C@H]2c1cc(C)ccc1F,"inconclusive: 18.5 µM [inhibitor, single point]"
17,CCc1ccc(N=C2NC(=O)/C(=C/c3ccc(OCC(=O)O)cc3)S2)cc1,inactive
18,Cn1c(/C(C#N)=C/c2ccc(-c3ccc(S(N)(=O)=O)cc3)o2)nc2ccccc21,"inconclusive: 1.47 µM [inhibitor, partial curve, poor fit]"
19,CC(/C=N/NC(=O)c1cc(C(C)C)[nH]n1)=C\c1ccccc1,inactive
20,COc1cc(/C=N/NC(=O)c2cc(-c3ccccc3OC(C)C)nc3ccccc23)ccc1O,inactive
21,CC(=O)c1cccc(NC(=O)N2CCCC2C(=O)NCc2ccc(F)cc2)c1 (configuration not stated),active: 10.4 µM
22,Cc1cccc(N(C(=O)Nc2ccc(Cl)cc2)C2=NCC(C)S2)n1 (configuration not stated),"inconclusive: 4.15 µM [inhibitor, partial curve, poor fit]"
23,CC(C)c1nnc(NC(=O)c2cc3ccccc3o2)s1,inactive
24,CC(=O)NCC1CCCN(C(=O)c2ccc(OC3CCN(Cc4ccccn4)CC3)cc2)C1 (configuration not stated),"inconclusive: 8.28 µM [inhibitor, partial curve]"

row,SMILES,Potency
1,Cc1ccc(C)c(NC(=O)CSc2nc3c(oc4ccccc43)c(=O)n2-c2ccccc2)c1,"inconclusive: 13.1 µM [inhibitor, single point]"
2,Clc1ccc(OCCn2ccnc2)c(Br)c1,"inconclusive: 18.5 µM [inhibitor, single point]"
3,O=C(CCc1nnc(CCCCc2ccccc2)o1)NCCc1cccnc1,"inconclusive: 11.7 µM [inhibitor, single point]"
4,C/C=C/C(=O)Nc1cccc(C2=NOC3(C2)C[C@@H](C(N)=O)N(C(=O)c2cc([N+](=O)[O-])cc([N+](=O)[O-])c2C)C3)c1 (some centres not stated),"inconclusive: 18.5 µM [inhibitor, single point]"
5,Cc1cccc(N2CCN(S(=O)(=O)c3ccc4c(c3)CC(=O)N4C)CC2)c1C,"inconclusive: 18.5 µM [inhibitor, single point]"
6,O=C(N/N=C/c1ccsc1)c1ccc2c(c1)OCO2,inactive
7,COC(=O)C1=C(C)N(C)C(C)=C(C(=O)OC)C1c1ccc(Cl)cc1,active: 10.4 µM
8,O=CC(Br)P(=O)(N1CCOCC1)N1CCOCC1 (configuration not stated),inactive
9,COc1cc2c(cc1OC)C(c1ccc(-c3ccc(Cl)cc3Cl)o1)=NCC2,"inconclusive: 1.04 µM [inhibitor, partial curve, poor fit]"
10,Cc1ccc(OCC(O)CN2CCCC2)cc1 (configuration not stated),"inconclusive: 1.65 µM [inhibitor, partial curve, poor fit]"
11,COC(=O)c1ccc(OCCCCN(C)Cc2ccccc2)cc1,inactive
12,CCOC(=O)C1=C(COC(=O)c2cc(OC)c(OC)c(OC)c2)NC(=O)NC1C (configuration not stated),inactive
13,COc1cc2c(cc1NC(=O)CCC(=O)O)oc1ccccc12,"inconclusive: 18.5 µM [inhibitor, single point]"
14,CCCC(=O)O[C@]1(C(=O)CCl)[C@H](C)C[C@@H]2[C@H]3CCC4=CC(=O)C=C[C@]4(C)[C@@]3(F)C(=O)C[C@@]21C,active: 1.9 µM
15,O=C(CCNS(=O)(=O)c1ccc(Br)s1)N1CCN(c2ccccc2)CC1,active: 11.7 µM
16,CN(C)c1ccc(/C=C(/C(=O)c2ccc(Cl)cc2Cl)n2cncn2)cc1,inactive
17,COc1ccc(S(=O)(=O)Cc2ccc(C(=O)N3CCN(C(=O)c4ccco4)CC3)o2)cc1,"inconclusive: 7.38 µM [inhibitor, partial curve]"
18,CCCCc1noc(-c2c(-c3ccccc3Cl)noc2C)n1,inactive
19,CC(C)Oc1ccc(CCN=C(N)N=C(N)N)cc1Cl,"inconclusive: 11.7 µM [inhibitor, single point]"
20,CCN1CC(CN(C)Cc2cn(-c3cccc(C)c3)nc2-c2cccc(F)c2)CC1=O (configuration not stated),"inconclusive: 18.5 µM [inhibitor, single point]"
21,Cc1c(NC(=S)NC(=O)c2cccc(Cl)c2)c(=O)n(-c2ccccc2)n1C,"inconclusive: 18.5 µM [inhibitor, single point]"
22,Cc1ccc(S(=O)(=O)C2(C(=O)N3CCCCCC3)CC2)cc1,active: 4.15 µM
23,O=C(CSCc1cnn(-c2ccccc2)c1-n1cccc1)NCc1cccs1,active: 4.65 µM
24,CN(C)C(=O)Oc1cccc(-c2cn3cc(Cl)ccc3n2)c1,inactive

# Taken from above:
# Potency, CN(C)C(=O)Oc1cccc(-c2cn3cc(Cl)ccc3n2)c1 is entered as inactive
# Potency, Cc1c(NC(=S)NC(=O)c2cccc(Cl)c2)c(=O)n(-c2ccccc2)n1C is entered as inconclusive: 18.5 µM [inhibitor, single point]

# Later entries

row,SMILES,Potency
1,Cc1ccc(N=Cc2c(O)ccc3ccccc23)cc1F,"inconclusive: 18.5 µM [inhibitor, single point]"
2,O=S(=O)(Nc1ccccn1)c1ccc(-n2cccn2)cc1,inactive
3,COc1ccc(C2CC(=O)OC3=C2C(=O)CC(C)(C)C3)c(OC)c1 (configuration not stated),"inconclusive: 11.7 µM [inhibitor, single point]"
4,CC(C)(C)OC(=O)N1CCCN(C(=O)c2ccc(Cl)cc2)CC1,inactive
5,CC(=O)N(c1ccccc1C)C1CCCC1,inactive
6,COc1ccc2oc(=O)c(C(=O)Oc3ccc(NC(C)=O)cc3)cc2c1,"inconclusive: 0.0586 µM [inhibitor, full curve, poor fit]"
7,COc1cccc(-n2c(SCC(=O)Nc3cc(C)on3)nc3c([nH]c4ccccc43)c2=O)c1,"inconclusive: 11.7 µM [inhibitor, single point]"
8,Cn1nc(C(F)(F)F)c2cc(NC(=O)OCc3ccc(F)cc3)sc21,"inconclusive: 9.28 µM [inhibitor, single point]"
9,Cc1ccccc1OCCn1c(CCNC(=O)C(C)C)nc2ccccc21,"inconclusive: 18.5 µM [inhibitor, single point]"
10,Cc1cc(C)cc(N(CCC#N)C(=O)CSC2=Nc3ccccc3C3CC=NN23)c1 (configuration not stated),active: 11.7 µM
11,CC(=O)Nc1c(Nc2ccccc2)c2ccccc2oc1=O,"inconclusive: 2.33 µM [inhibitor, full curve]"
12,CC1CC1C(=O)OCC(=O)NNC(=O)COc1ccc(Br)cc1 (configuration not stated),inactive
13,O=C(NCCc1csc(-c2cccnc2)n1)c1cccc2ccccc12,"inconclusive: 13.1 µM [inhibitor, single point]"
14,c1ccc(C(Cc2nc(-c3ccccn3)no2)c2ccccc2)cc1,"inconclusive: 16.5 µM [inhibitor, single point]"
15,Cc1ccc(-c2cc3nc(-c4ccc(Br)cc4)cc(N)n3n2)cc1,inactive
16,CCOc1ccc(S(=O)(=O)N2CCOCC2)cc1NC(=O)C1CCC1,inactive
17,Cc1ccc(CCC(=O)Nc2ccc(C)c(C)c2)o1,inactive
18,CCOc1cccc(C(=O)Nc2nccs2)c1,inactive
19,CCNC(=S)NNC(=O)c1ccc(OC)cc1,"inconclusive: 10.4 µM [inhibitor, partial curve, poor fit]"
20,Cc1ccc(C)c(N(C(=O)Cc2cccs2)C(C(=O)NC2CCCC2)c2ccc(C)o2)c1 (configuration not stated),inactive
21,CCN(CC)S(=O)(=O)c1ccc2[nH]c(=O)cc(C(=O)Nc3ccccc3N3CCCC3)c2c1,"inconclusive: 14.7 µM [inhibitor, partial curve, poor fit]"
22,CCOC(=O)C1C(c2ccccc2)C(C(=O)OCC)S(=O)(=O)C(CCN(CC)CC)S1(=O)=O (configuration not stated),"inconclusive: 4.15 µM [inhibitor, partial curve]"
23,CC[n+]1c(C)sc2c(C)cc(C)cc21,"inconclusive: 18.5 µM [inhibitor, single point]"
24,COc1cc2c(cc1OC)C1(CCCC1)CNC2c1ccc([N+](=O)[O-])cc1 (configuration not stated),"inconclusive: 18.5 µM [inhibitor, single point]"
